Mtb growth Cornell: 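Whole-cell assay for inhibitors of Mycobacterium tuberculosis growth, labelled Cornell in the record; the read-out is not stated. The concentration is filed as 10 mM, unlikely as a test dose, so the dose is not known. Higher means stronger inhibition (inferred from two other growth screens of the library). Size under these conditions: about 53,000 compounds, about 900 of them at 50% or above in at least one test.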
Mtb heat-shock: 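Assay on Mycobacterium tuberculosis, filed only as a heat shock assay from Cornell; the read-out is not stated. The concentration is filed as 10 mM, unlikely as a test dose, so the dose is not known. Higher reads as stronger inhibition (inferred: compounds with an IC50 in retests scored well above the rest). Of about 69,000 compounds tested this way, about 930 (1.4%) reached 50% or more in at least one test.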

Each number is a percent effect as filed.
How 0% and 100% were set is not recorded. Most values in the screen are low, and negative values occur.
This is an unselected part of the compounds tested.
A dash means the value is not listed here; it may have been measured.

| Compound | Mtb growth Cornell | Mtb heat-shock |
|---|---|---|
| `CCOc1ccccc1C(C(=O)O)N(C)CC1CCOCC1` (stereo not shown) | - | 12.07 |
| `Cc1nc2c(c(N(C)C)n1)CCN(C(=O)c1ccc(N)nc1)C2` | 3.278 | -10.61 |
| `CCc1ccc2nc(NCC(O)CO)cc(C)c2c1` (stereo not shown) | - | -5.377 |
| `CCOc1ccc(CN2C(=O)CC3(CCCC3)C2=O)nc1` | -27.86 | 21.28 |
| `O=C(O)C(F)(F)F.[H][C@@]12C[C@@H](C(=O)NC(C)C)C[C@@]1([H])N(Cc1ccsc1)CCO2` | 19.48 | -46.72 |
| `c1cnc(N2CCC(C3CCN(CCCn4cccn4)C3)CC2)nc1` (stereo not shown) | 8.01 | 21.22 |
| `COc1ccc(CN2Cc3cn(C)nc3C(COCC3CC3)C2)cc1` (stereo not shown) | 25.19 | 4.908 |
| `c1ccc2c(c1)CC(N1CCCC(NCc3cccc4nonc34)C1)C2` (stereo not shown) | 28.02 | -18.26 |
| `O=C1CC2(CCCCN2C(=O)c2ccccc2)CN1CC1CC1` (stereo not shown) | 1.815 | 10.35 |
| `COc1ccc(CNCCc2cc(F)cc3c2OCOC3)c(OC)c1` | -3.218 | -12.63 |
| `COCCN(Cc1ccc(F)cc1Cl)C(=O)c1ccncc1` | 13 | 0.8627 |
| `Cc1cc2nc(CO[C@H]3CN(C(=O)C4CC4)C[C@H]3F)[nH]c2cc1C` | -57.3 | -28.82 |
| `CCn1ccnc1CN1CCCN(C(=O)c2sccc2C#N)CC1` | 12.63 | 3.462 |
| `Cc1nc(CN2CCCN(CCOc3cccc(C#N)c3)CC2)no1` | -11.71 | -15.02 |
| `COCCCNC(=O)C(C)n1nc(-c2ccco2)cc(N)c1=O` (stereo not shown) | 37.24 | -0.7812 |
| `COCc1ncc(CN2CCC3(CCC(=O)N(CC(C)O)C3)CC2)cn1` (stereo not shown) | -38.91 | 6.278 |
| `CCn1ncc2c1C(COC)CN(S(=O)(=O)N(C)C)C2.O=C(O)C(F)(F)F` (stereo not shown) | -13.98 | -3.275 |
| `CC(=O)N1CCN(c2ncnc3cc4c(cc23)OCCO4)CC1` | - | -6.956 |
| `O=C(NC1CCCCC1)N1CCC(n2cc(-c3ccccn3)nn2)CC1` | 25.81 | -1.487 |
| `CC(C)c1cc(NC(=O)c2ccncc2)[nH]n1` | -3.364 | -18.27 |
| `CCNC(=O)[C@@H]1C[C@@H](NC(=O)Cc2ccccn2)CN1CCCSC` | 11.5 | -0.2308 |
| `O=C(O)c1nnn(Cc2ccc(F)cc2)c1-c1cccnc1` | -34.23 | 12.11 |
| `O=C(NC1CCc2nccn2C1)c1ccc(OCC2CC2)nc1` (stereo not shown) | -3.199 | -1.306 |
| `CN1CC(=O)N(c2cccc(F)c2)CC12CCN(CC1CCOCC1)C2.O=C(O)C(F)(F)F.O=C(O)C(F)(F)F` (stereo not shown) | - | 2.303 |
| `COc1cccc(CNC[C@H]2COCc3nc4cccnc4n32)n1` | 13.21 | -29.21 |
| `CN(Cc1ccccc1F)Cc1cc2c(cc1Br)OCCO2` | 19.67 | -0.7848 |
| `CN(CC1CC1)c1ccc2ccc(C(=O)NC3CCCCC3)cn12` | -46.75 | 11.43 |
| `CCc1cc(=O)[nH]c(-c2ccc(NC(CO)CC(C)C)nc2)n1` (stereo not shown) | -18.11 | 6.278 |
| `[H][C@@]12CN(CC(=O)OCC)C[C@]1([H])OCCN2c1ncc(F)cn1` | - | -48.28 |
| `Fc1ccc(CN2CCCC(c3nccnc3-n3ccnc3)C2)cc1` (stereo not shown) | -8.661 | 2.689 |
| `CS(=O)(=O)NCC1CCCN(C(=O)Nc2ccccc2N2CCCC2)C1` (stereo not shown) | 12.25 | -10.11 |
| `Cc1cccnc1NC(=O)C(C)Cn1nc(C(F)(F)F)cc1C` (stereo not shown) | - | -5.154 |
| `CC(C)c1sc(Br)nc1C(=O)NCc1cccnc1` | 16.15 | -3.067 |
| `O=C(Nc1ccnc(OC2CCOC2)c1)c1cccs1` (stereo not shown) | 31.16 | 0.02691 |
| `O=C(O)c1nnn(-c2cccc(C(F)(F)F)c2)c1C1CC1` | -0.3576 | 5.83 |
| `CC(C)N(C)C(=O)CN1C(=O)OC[C@@H]1c1ccccc1` | 31.58 | -7.352 |
| `O=C(O)C(F)(F)F.[H][C@@]12CCCO[C@]1([H])[C@H](NS(C)(=O)=O)CN2C(=O)c1cccnc1` | 16.51 | -22.75 |
| `Cc1ccc(C2CCCCCN2CCCS(C)(=O)=O)o1` (stereo not shown) | 14.05 | -24.86 |
| `COc1ccc(-n2nc(C)c(C(C)=O)c2C)cc1C(N)=O` | - | 9.954 |
| `CSc1ccccc1C(C(=O)O)N1CCN(Cc2ccccn2)CC1` (stereo not shown) | -1.54 | -8.474 |
| `CC(=O)N(c1ccc(F)cc1)c1nc(CN2CCCC2C(C)C)cs1` (stereo not shown) | 39.6 | 35.92 |
| `CN(Cc1cnn(C)c1)C(=O)NC1CCCC1` | -5.905 | -17.13 |
| `CCCc1nc(CN(CC)C(=O)c2ccc3c(c2)nnn3C)no1` | -14.78 | 20.28 |
| `CCc1csc(C2CCCN(C(=O)c3cnc[nH]3)C2)n1` (stereo not shown) | -9.713 | -3.757 |
| `O=C(Nc1cccc2ccccc12)N1CCC(N2CCSCC2)CC1` | 41.28 | -2.776 |
| `NC(=O)c1cc(NC(=O)NCCc2cc(F)cc(F)c2)ccc1F` | 25.7 | 37.45 |
| `CCOCc1cncc2c1CCN(S(=O)(=O)c1cccc(C)c1)C2` | -22.41 | 5.684 |
| `CCN1CCn2c(C)cnc2C12CCN(C(=O)N(C)C)CC2.O=C(O)C(F)(F)F.O=C(O)C(F)(F)F` | 31.41 | -5.935 |
| `Cc1occc1C(=O)N1CCOCC2(CCN(Cc3nccs3)C2)C1.O=C(O)C(F)(F)F` (stereo not shown) | 9.782 | -41.64 |
| `Cc1csc(CNC(=O)Cc2ccc3c(c2)OCCO3)n1` | -40.39 | 16.85 |
| `CN1CC2(CCN(C(=O)c3cccc(-n4cccn4)c3)CC2)OC1=O` | - | 18.96 |
| `c1cc(CNCC2CNc3ccnn3C2)cc(Cn2cccn2)c1` (stereo not shown) | - | -38.4 |
| `CNc1cc(C2CN(Cc3scnc3C)CCO2)nc(C)n1` (stereo not shown) | 16.92 | 67.88 |
| `O=C(NCc1cn2cccnc2n1)C1CC(=O)N(Cc2ccccn2)C1` (stereo not shown) | 11.78 | -27.37 |
| `O=C(NC1CCCN(c2ccc(OC(F)F)cc2)C1)c1cnccn1` (stereo not shown) | 5.096 | 27.97 |
| `O=C(O)C(F)(F)F.O=C(O)C(F)(F)F.c1cnc(N2CCC3(COCCN(CC4CCOCC4)C3)C2)nc1` (stereo not shown) | - | -23.85 |
| `O=C(O)C(F)(F)F.O=C1CCC2(CCN(Cc3ccc(F)cc3)CC2)N1Cc1ccccc1` | 12.49 | 1.967 |
| `CN(CCNC(=O)Nc1cnn(C)c1)Cc1ccc(F)cc1` | -20.72 | -17.09 |
| `CC(c1cccc(Cl)c1)N(C)Cc1nc2c(cnn2C)c(=O)[nH]1` (stereo not shown) | - | 8.894 |
| `O=C(O)C(F)(F)F.O=C(O)C(F)(F)F.[H][C@@]12CN(Cc3scnc3C)C[C@H](C(=O)N3CCCO3)[C@]1([H])CCO2` | 6.757 | 2.116 |
| `CC(NCCCc1cnn(C)c1)c1ccc(Cl)s1` (stereo not shown) | - | -12.09 |
| `Cc1cccc(C(=O)NC(CN2CCCC2=O)c2ccccc2)n1` (stereo not shown) | - | -13.58 |
| `COc1ccccc1OCC(=O)NS(=O)(=O)c1ccc(Cl)s1` | - | 4.067 |
| `Cc1ccc(CNC(=O)NCC(=O)N2CCCC2)c(N2CCCC2)c1` | 23.93 | 3.274 |
| `COCCC(=O)N1CC[C@@H](N(C)C)[C@@H]1Cc1ccccc1` | - | -303.6 |
| `CCOc1ccc(CNCC(O)c2ccccc2)cc1Cl.Cl` (stereo not shown) | 25.68 | 35.2 |

For reference, 7 entries once more:

Compound,Mtb growth Cornell,Mtb heat-shock
Cc1occc1C(=O)N1CCOCC2(CCN(Cc3nccs3)C2)C1.O=C(O)C(F)(F)F (stereo not shown),9.782,-41.64
CC(C)N(C)C(=O)CN1C(=O)OC[C@@H]1c1ccccc1,31.58,-7.352
CC(=O)N1CCN(c2ncnc3cc4c(cc23)OCCO4)CC1,-,-6.956
CCc1csc(C2CCCN(C(=O)c3cnc[nH]3)C2)n1 (stereo not shown),-9.713,-3.757
[H][C@@]12CN(CC(=O)OCC)C[C@]1([H])OCCN2c1ncc(F)cn1,-,-48.28
O=C(Nc1ccnc(OC2CCOC2)c1)c1cccs1 (stereo not shown),31.16,0.02691
NC(=O)c1cc(NC(=O)NCCc2cc(F)cc(F)c2)ccc1F,25.7,37.45

Data taken from ChEMBL document CHEMBL3988442, “University of Dundee, Small-Polar-MMV Screening Library” (2021).